Measured values: the supplement of paper PMC12823440, “Inhibitors supercharge kinase turnover through native proteolytic circuits” (Nature, 2025)
The list shows a part of the results. The calls rarely recur for the same compound in another form.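 In K562 cells expressing nanoluciferase-fused kinases, luminescence was recorded at 4 h intervals between 2 and 18 h, normalized as percent of control with DMSO at 100% and a positive control at 0%. A significant (2 sigma) signal drop marks a time point as decreased. The authors' rule for a hit is not shown and takes in more than the number of time points.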

The chains behind the UniProt entries cited, without tags or fusion partners. Where a name states a change or a piece, a line headed by the entry shows the natural chain unless it says otherwise.
UniProt Q12851: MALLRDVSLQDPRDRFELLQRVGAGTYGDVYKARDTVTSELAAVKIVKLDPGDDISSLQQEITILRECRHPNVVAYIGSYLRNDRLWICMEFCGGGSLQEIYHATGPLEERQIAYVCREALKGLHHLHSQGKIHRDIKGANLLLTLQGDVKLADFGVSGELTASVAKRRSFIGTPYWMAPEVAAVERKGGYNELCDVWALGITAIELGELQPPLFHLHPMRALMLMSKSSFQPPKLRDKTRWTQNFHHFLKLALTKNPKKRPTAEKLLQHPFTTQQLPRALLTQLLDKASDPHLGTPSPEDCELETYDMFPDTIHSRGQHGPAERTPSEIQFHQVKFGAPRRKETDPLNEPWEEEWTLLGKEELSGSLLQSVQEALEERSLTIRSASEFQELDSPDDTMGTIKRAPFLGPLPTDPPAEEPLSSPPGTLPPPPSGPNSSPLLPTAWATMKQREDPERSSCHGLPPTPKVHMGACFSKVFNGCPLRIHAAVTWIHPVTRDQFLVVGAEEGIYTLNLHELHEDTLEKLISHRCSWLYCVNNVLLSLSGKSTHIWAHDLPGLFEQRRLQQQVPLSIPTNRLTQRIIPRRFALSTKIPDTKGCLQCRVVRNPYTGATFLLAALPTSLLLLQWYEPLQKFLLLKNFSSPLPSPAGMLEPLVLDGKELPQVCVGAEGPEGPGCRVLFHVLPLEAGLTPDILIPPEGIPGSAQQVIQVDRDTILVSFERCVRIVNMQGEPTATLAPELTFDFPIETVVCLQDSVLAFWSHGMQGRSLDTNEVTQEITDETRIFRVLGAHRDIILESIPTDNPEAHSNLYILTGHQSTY
UniProt P49137, whole entry, looked up: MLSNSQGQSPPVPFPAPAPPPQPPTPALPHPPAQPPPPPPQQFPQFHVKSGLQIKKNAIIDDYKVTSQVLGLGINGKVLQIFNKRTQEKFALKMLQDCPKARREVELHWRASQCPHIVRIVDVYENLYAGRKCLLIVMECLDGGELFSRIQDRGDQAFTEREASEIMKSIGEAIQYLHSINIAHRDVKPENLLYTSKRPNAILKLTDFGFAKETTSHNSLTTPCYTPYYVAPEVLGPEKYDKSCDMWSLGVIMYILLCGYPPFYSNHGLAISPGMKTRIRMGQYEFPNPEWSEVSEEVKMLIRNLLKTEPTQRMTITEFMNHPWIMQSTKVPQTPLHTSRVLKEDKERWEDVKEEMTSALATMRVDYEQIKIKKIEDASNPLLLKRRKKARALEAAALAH
UniProt O96013: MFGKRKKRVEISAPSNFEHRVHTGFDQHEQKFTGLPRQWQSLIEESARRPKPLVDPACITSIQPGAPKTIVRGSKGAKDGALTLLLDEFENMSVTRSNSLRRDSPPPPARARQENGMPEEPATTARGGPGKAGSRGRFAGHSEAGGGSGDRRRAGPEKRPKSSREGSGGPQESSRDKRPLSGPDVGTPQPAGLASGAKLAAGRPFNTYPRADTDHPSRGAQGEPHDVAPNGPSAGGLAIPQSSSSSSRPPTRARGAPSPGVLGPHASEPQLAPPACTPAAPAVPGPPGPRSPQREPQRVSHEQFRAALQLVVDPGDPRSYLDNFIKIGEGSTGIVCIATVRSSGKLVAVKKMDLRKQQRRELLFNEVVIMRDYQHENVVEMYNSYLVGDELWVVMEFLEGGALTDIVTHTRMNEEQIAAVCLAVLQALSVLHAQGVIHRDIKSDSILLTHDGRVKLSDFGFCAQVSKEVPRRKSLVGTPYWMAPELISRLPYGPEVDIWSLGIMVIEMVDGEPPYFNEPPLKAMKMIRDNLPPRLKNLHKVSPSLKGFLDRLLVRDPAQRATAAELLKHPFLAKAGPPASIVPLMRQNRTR
UniProt P09619, whole entry: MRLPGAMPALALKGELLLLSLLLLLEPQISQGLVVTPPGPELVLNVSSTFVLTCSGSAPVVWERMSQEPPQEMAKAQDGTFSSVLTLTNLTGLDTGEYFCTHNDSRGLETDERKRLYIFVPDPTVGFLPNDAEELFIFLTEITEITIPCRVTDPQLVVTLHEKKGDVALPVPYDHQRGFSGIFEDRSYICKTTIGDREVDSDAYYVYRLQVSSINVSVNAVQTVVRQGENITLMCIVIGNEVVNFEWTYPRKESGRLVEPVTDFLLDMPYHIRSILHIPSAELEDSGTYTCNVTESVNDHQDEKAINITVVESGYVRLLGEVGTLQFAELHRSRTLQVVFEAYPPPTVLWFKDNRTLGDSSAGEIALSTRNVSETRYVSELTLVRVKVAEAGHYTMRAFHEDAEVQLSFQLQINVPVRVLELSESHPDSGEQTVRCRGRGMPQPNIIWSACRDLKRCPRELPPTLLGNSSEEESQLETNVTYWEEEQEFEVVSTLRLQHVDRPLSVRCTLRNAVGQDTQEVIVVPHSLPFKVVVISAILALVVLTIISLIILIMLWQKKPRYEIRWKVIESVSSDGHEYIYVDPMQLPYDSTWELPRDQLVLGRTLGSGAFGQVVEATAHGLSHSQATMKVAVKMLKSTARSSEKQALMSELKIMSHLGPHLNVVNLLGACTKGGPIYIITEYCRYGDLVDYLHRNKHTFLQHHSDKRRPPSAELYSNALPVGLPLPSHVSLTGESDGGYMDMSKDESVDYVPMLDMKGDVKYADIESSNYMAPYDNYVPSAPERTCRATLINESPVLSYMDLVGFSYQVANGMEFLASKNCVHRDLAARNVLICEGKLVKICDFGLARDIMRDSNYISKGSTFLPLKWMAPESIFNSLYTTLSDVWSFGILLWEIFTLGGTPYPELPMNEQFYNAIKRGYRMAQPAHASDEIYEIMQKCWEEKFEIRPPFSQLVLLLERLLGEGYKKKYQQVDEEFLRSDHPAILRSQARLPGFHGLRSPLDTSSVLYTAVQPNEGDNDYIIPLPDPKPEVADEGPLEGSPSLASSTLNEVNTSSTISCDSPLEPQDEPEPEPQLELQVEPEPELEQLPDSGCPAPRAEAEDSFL
UniProt Q15118, whole entry, looked up: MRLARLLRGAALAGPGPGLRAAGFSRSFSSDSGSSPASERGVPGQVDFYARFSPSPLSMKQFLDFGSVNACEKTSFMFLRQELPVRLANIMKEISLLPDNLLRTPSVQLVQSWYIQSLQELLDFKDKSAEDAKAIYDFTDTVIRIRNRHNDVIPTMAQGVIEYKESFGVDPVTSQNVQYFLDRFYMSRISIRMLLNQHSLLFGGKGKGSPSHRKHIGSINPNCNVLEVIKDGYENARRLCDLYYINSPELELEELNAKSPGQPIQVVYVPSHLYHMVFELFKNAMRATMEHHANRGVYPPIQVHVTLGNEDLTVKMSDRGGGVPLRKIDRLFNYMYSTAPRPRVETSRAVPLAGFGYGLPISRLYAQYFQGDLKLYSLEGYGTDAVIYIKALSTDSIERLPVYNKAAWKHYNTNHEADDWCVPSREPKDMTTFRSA
UniProt O15530: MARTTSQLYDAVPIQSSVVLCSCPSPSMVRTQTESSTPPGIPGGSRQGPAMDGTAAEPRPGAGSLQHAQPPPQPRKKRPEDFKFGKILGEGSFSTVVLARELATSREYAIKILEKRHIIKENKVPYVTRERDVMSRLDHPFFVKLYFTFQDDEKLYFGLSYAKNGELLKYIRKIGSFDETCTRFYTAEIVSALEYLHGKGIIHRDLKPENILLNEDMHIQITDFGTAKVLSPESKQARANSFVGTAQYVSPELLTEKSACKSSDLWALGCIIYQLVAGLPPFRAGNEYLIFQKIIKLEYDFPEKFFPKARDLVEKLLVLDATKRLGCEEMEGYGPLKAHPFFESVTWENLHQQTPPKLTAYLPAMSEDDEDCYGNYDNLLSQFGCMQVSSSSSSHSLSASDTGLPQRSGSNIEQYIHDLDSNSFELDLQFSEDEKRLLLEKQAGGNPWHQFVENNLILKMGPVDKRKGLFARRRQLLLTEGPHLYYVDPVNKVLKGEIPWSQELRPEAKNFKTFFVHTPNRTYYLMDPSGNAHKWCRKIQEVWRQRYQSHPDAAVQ
UniProt P42356, whole entry, looked up: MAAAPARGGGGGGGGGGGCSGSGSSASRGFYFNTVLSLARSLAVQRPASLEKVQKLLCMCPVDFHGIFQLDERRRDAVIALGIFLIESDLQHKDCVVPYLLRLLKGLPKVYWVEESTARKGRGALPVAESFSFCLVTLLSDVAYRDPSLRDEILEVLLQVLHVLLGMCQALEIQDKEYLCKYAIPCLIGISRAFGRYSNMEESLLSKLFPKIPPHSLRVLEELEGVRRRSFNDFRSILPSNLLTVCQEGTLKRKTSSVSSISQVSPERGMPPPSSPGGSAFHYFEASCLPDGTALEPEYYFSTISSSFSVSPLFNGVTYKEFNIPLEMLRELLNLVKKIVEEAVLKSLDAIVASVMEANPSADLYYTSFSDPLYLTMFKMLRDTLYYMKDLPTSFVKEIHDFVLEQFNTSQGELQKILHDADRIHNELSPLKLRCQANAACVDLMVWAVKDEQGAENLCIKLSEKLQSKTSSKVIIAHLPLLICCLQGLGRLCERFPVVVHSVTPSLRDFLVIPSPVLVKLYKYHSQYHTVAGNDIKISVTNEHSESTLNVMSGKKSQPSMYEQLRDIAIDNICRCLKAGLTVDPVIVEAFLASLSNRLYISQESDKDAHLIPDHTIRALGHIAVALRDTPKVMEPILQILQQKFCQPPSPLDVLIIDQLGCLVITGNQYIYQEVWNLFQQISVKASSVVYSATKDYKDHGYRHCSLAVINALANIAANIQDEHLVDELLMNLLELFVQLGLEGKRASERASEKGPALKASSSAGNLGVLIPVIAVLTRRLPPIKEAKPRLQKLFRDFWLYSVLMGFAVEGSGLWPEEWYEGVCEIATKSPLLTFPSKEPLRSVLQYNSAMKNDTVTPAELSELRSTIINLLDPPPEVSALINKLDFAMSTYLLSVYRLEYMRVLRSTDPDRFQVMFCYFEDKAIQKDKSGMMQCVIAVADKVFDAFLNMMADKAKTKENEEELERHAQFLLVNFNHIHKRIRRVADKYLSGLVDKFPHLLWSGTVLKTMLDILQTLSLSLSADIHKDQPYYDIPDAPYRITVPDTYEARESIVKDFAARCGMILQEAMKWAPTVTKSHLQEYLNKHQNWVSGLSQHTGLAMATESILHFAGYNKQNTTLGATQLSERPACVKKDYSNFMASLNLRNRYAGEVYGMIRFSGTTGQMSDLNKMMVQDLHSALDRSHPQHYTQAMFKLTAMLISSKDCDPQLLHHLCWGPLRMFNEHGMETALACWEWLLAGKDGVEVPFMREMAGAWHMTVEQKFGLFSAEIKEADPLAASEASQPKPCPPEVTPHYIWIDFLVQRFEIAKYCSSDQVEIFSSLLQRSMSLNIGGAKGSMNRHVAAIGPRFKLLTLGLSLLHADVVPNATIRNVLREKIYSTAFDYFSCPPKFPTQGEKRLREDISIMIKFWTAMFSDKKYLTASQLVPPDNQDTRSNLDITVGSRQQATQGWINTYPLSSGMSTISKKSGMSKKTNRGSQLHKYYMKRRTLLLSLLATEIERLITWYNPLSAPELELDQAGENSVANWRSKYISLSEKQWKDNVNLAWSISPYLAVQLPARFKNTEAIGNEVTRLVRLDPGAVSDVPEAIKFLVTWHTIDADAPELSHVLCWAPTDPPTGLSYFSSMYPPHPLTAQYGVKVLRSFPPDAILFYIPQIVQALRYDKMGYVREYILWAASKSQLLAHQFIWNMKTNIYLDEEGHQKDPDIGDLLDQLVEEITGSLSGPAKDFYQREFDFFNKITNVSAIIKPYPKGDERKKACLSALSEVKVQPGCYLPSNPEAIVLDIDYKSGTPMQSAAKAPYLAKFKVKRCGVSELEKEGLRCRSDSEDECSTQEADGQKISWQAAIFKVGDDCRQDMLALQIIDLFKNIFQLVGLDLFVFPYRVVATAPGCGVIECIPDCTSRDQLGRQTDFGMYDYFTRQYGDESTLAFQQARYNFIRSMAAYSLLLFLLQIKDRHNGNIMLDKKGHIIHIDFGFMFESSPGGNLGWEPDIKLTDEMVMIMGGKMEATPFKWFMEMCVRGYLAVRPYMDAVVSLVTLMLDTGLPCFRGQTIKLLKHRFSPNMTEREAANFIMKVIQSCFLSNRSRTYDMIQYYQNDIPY
UniProt Q13131: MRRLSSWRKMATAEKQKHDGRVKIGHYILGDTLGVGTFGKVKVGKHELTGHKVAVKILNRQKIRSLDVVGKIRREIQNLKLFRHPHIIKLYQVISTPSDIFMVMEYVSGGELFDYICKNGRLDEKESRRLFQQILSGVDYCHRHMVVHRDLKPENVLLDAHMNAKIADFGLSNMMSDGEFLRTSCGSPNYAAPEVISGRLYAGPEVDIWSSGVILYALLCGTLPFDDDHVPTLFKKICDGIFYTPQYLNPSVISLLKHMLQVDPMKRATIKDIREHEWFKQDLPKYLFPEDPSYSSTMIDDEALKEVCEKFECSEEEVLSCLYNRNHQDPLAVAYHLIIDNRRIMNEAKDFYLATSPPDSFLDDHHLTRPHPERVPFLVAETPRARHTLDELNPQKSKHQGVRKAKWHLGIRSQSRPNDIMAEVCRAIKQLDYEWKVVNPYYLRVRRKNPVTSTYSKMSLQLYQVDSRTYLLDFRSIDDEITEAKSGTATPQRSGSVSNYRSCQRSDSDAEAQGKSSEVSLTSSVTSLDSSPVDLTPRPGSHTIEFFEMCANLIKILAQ

Columns and labels:
Experiment in all cases: number of time points (of 5) at which kinase-Nluc abundance scored as decreased, DMSO-normalised (count); higher = more persistent destabilization
Conditions in all cases: K562; 2-18 h
[1] = biological target: LMTK2 (UniProt Q8IWU2)
[2] = biological target: LYN (UniProt P07948)
[3] = biological target: MAP2K1 (UniProt Q02750)
[4] = biological target: MAP2K2 (UniProt P36507)
[5] = biological target: MAP4K2 (UniProt Q12851)
[6] = biological target: MAPK1 (UniProt P28482)
[7] = biological target: MAPK4 (UniProt P31152)
[8] = biological target: MAPKAPK2 (UniProt P49137)
[9] = biological target: MKNK1 (UniProt Q9BUB5)
[10] = biological target: NTRK2 (UniProt Q16620)
[11] = biological target: NTRK3 (UniProt Q16288)
[12] = biological target: PAK4 (UniProt O96013)
[13] = biological target: PBK (UniProt Q96KB5)
[14] = biological target: PDGFRB (UniProt P09619)
[15] = biological target: PDK1 (UniProt Q15118)
[16] = biological target: PDPK1 (UniProt O15530)
[17] = biological target: PIK4CA (UniProt P42356)
[18] = biological target: PIK4CB (UniProt Q9UBF8)
[19] = biological target: PLK1 (UniProt P53350)
[20] = biological target: PRKAA1 (UniProt Q13131)

Measured: number of time points

NC1(Cc2ccc(Cl)cc2)CCN(c2ncnc3[nH]ccc23)CC1 (10 µM)
0: [1] | [2] | [3] | [4] | [5] | [6] | [7] | [8] | [9] | [10] | [11] | [12] | [13] | [14] | [15] | [16] | [17] | [18] | [19] | [20]

OC(COc1ccc(C(F)(F)F)cc1)CN(Cc1ccccc1)Cc1ccccc1 (stereo not given) (2.5 µM)
0: [1] | [2] | [3] | [4] | [5] | [6] | [7] | [8] | [9] | [10] | [11] | [12] | [13] | [14] | [15] | [16] | [17] | [18] | [19] | [20]

O=C(Nc1cccnc1)c1cc(C(=O)c2c(F)cccc2Br)c[nH]1 (10 µM)
0: [1] | [2] | [3] | [4] | [5] | [6] | [7] | [8] | [9] | [10] | [11] | [12] | [13] | [14] | [15] | [16] | [17] | [18] | [19] | [20]

CNC(=O)c1ccc(-c2cnc3cnc(C(=O)N(C)c4ccc(Cl)cc4)cn23)cc1 (2.5 µM)
0: [1] | [2] | [3] | [4] | [5] | [6] | [7] | [8] | [9] | [10] | [11] | [12] | [13] | [14] | [15] | [16] | [17] | [18] | [19] | [20]

OCCNC1CCCc2c1[nH]c1ccc(-c3ccccc3)cc21 (stereo not given) (2.5 µM)
0: [1] | [3] | [4] | [5] | [6] | [7] | [8] | [9] | [10] | [11] | [12] | [13] | [14] | [15] | [16] | [17] | [18] | [19] | [20]
1: [2]

COc1ccc(Cn2cc(C(=O)N=Nc3c(O)[nH]c4c(C)cccc34)nn2)cc1 [MARK4 inhibitor 1] (10 µM)
0: [1] | [2] | [3] | [4] | [5] | [6] | [7] | [8] | [9] | [10] | [11] | [12] | [13] | [14] | [15] | [16] | [17] | [18] | [19] | [20]

CC/C=C\C/C=C\C/C=C\CCCCCCCC(=O)O [α-Linolenic acid] (10 µM)
0: [1] | [2] | [3] | [4] | [5] | [6] | [7] | [8] | [9] | [10] | [11] | [12] | [13] | [14] | [15] | [16] | [17] | [18] | [19] | [20]

COc1ccc(-c2ccc3c(N4CCOC[C@@H]4C)nc(N4CCOC[C@@H]4C)nc3n2)cc1CO (2.5 µM)
1: [7]
4: [11] | [16] | [17]
2: [2]
0: [3] | [4] | [5] | [6] | [8] | [12] | [13] | [15]
3: [1] | [9] | [10] | [14] | [18] | [19] | [20]

CC1=C2C(=O)O[C@@H](c3ccoc3)[C@]2(C)CCC1 [Fraxinellone] (10 µM)
0: [1] | [2] | [3] | [4] | [5] | [6] | [7] | [8] | [9] | [10] | [11] | [12] | [13] | [14] | [15] | [16] | [17] | [18] | [19] | [20]

O=C(/C=C/c1ccc(O[C@@H]2O[C@H](CO)[C@@H](O)[C@H](O)[C@H]2O[C@@H]2OC[C@](O)(CO)[C@H]2O)cc1)c1ccc(O)cc1O [Isoliquiritin apioside] (10 µM)
0: [1] | [2] | [3] | [4] | [5] | [6] | [7] | [8] | [9] | [10] | [11] | [12] | [13] | [14] | [15] | [16] | [17] | [18] | [19] | [20]

CC(C)(C)c1ccc(S(=O)(=O)Nc2ccc(-n3ccnc3)cc2)cc1 (10 µM)
0: [1] | [2] | [3] | [4] | [5] | [6] | [7] | [8] | [9] | [10] | [11] | [12] | [13] | [14] | [15] | [16] | [17] | [18] | [19] | [20]

3 entries from above, sorted by formula weight, ascending:
CC1=C2C(=O)O[C@@H](c3ccoc3)[C@]2(C)CCC1 [Fraxinellone] (10 µM)
0: [1] | [2] | [3] | [4] | [5] | [6] | [7] | [8] | [9] | [10] | [11] | [12] | [13] | [14] | [15] | [16] | [17] | [18] | [19] | [20]

CC(C)(C)c1ccc(S(=O)(=O)Nc2ccc(-n3ccnc3)cc2)cc1 (10 µM)
0: [1] | [2] | [3] | [4] | [5] | [6] | [7] | [8] | [9] | [10] | [11] | [12] | [13] | [14] | [15] | [16] | [17] | [18] | [19] | [20]

COc1ccc(-c2ccc3c(N4CCOC[C@@H]4C)nc(N4CCOC[C@@H]4C)nc3n2)cc1CO (2.5 µM)
1: [7]
4: [11] | [16] | [17]
2: [2]
0: [3] | [4] | [5] | [6] | [8] | [12] | [13] | [15]
3: [1] | [9] | [10] | [14] | [18] | [19] | [20]

Further compounds follow.

O=C1NC(=O)C(=Cc2ccc(-c3ccc(F)cc3)o2)S1 (stereo in doubt) (10 µM)
0: [1] | [2] | [3] | [4] | [5] | [6] | [7] | [8] | [9] | [10] | [11] | [12] | [13] | [14] | [15] | [16] | [17] | [18] | [19] | [20]
